Values from PubChem BioAssay AID743121 (NCATS, 2013)
Assay: 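Partners whose loss is lethal together with topoisomerase I blockade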 (primary screen). System: MDA-MB-231 cells, a human breast cancer line. Knock-down reagent: single siRNA against human genes, 20 nM siRNA (0.8 pmol per well). Timing: 120 h (drug added 48 h after transfection, read 72 h later). Treatment: camptothecin 20 nM (about EC30) for 72 h; vehicle 0.1% DMSO in parallel plates. Measured: 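Cell viability by ATP luminescence (CellTiter-Glo) as % of non-targeting siRNA wells, and the log2 ratio of viability without drug over viability with camptothecin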. Scale: log2 vehicle/camptothecin viability: higher = stronger sensitisation to camptothecin; viability with camptothecin and viability without drug: higher = more viable cells. Hit rule: 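Each gene scored by redundant siRNA activity (RSA) over its individual siRNA ratios; a gene is called active at p < 0.001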.
Shown is a random part of about 26,000 deposited reagents. 167 of them (0.63%) count as active. 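Calls are per gene from RSA p-values that are not deposited; an individual active-marked siRNA can sensitise only weakly.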 A number with no mark means an inactive call. The numbers tell different reagents against one gene apart.

target gene | siRNA no. | log2 vehicle/camptothecin viability | viability with camptothecin (% of control) | viability without drug (% of control)
MMP10 (matrix metallopeptidase 10) | 1 | -0.0848 | 51.6 | 48.7
MMP10 (matrix metallopeptidase 10) | 2 | 0.273 | 42 | 50.8
MMP10 (matrix metallopeptidase 10) | 3 | -0.309 | 84.6 | 68.3
MMP10 (matrix metallopeptidase 10) | 4 | -0.507 | 78.5 | 55.2
GPLD1 (glycosylphosphatidylinositol specific phospholipase D1) | 1 | -0.231 | 90.4 | 77
GPLD1 (glycosylphosphatidylinositol specific phospholipase D1) | 2 | 0.347 | 63.3 | 80.6
GPLD1 (glycosylphosphatidylinositol specific phospholipase D1) | 3 | 0.189 | 63.5 | 72.4
GPLD1 (glycosylphosphatidylinositol specific phospholipase D1) | 4 | -0.536 | 75.1 | 51.8
PRSS30P (serine protease 30, pseudogene) | 1 | 0.0288 | 103 | 105
PRSS30P (serine protease 30, pseudogene) | 2 | 0.172 | 40.7 | 45.9
PRSS30P (serine protease 30, pseudogene) | 3 | -0.0216 | 87.4 | 86.1
PDE4D (phosphodiesterase 4D) | 1 | -0.455 | 110 | 80.6
PDE4D (phosphodiesterase 4D) | 2 | -0.0638 | 80.8 | 77.3
PDE4D (phosphodiesterase 4D) | 3 | -0.0106 | 87.1 | 86.5
PDE4D (phosphodiesterase 4D) | 4 | -0.479 | 111 | 79.9
TYSND1 (trypsin like peroxisomal matrix peptidase 1) | 1 | -0.389 | 48.4 | 37
TYSND1 (trypsin like peroxisomal matrix peptidase 1) | 2 | -0.294 | 72.4 | 59
TYSND1 (trypsin like peroxisomal matrix peptidase 1) | 3 | -0.204 | 29.3 | 25.4
TYSND1 (trypsin like peroxisomal matrix peptidase 1) | 4 | -0.206 | 90 | 78
GATA1 (GATA binding protein 1) | 1 | -0.0116 | 88.8 | 88.1
GATA1 (GATA binding protein 1) | 2 | -0.196 | 94.1 | 82.1
GATA1 (GATA binding protein 1) | 3 | -0.366 | 33.2 | 25.7
GATA1 (GATA binding protein 1) | 4 | -0.141 | 75.1 | 68.1
ETFB (electron transfer flavoprotein subunit beta) | 1 | -0.0503 | 52.7 | 50.9
ETFB (electron transfer flavoprotein subunit beta) | 2 | 0.0609 | 50.9 | 53.1
ETFB (electron transfer flavoprotein subunit beta) | 3 | 0.117 | 98.3 | 107
KIF21B (kinesin family member 21B) | 1 | -0.231 | 99.9 | 85.1
KIF21B (kinesin family member 21B) | 2 | -0.33 | 69.4 | 55.2
KIF21B (kinesin family member 21B) | 3 | -0.0504 | 85.2 | 82.3
KIF21B (kinesin family member 21B) | 4 | 0.189 | 42.9 | 48.9
PRKCQ (protein kinase C theta) | 1 | 0.0285 | 77.1 | 78.6
PRKCQ (protein kinase C theta) | 2 | 0.167 | 70.4 | 79.1
PRKCQ (protein kinase C theta) | 3 | -0.175 | 113 | 100
PRKCQ (protein kinase C theta) | 4 | -0.29 | 51.6 | 42.2
CAMK2D (calcium/calmodulin dependent protein kinase II delta) | 1 | -0.263 | 103 | 86
CAMK2D (calcium/calmodulin dependent protein kinase II delta) | 2 | -0.0768 | 80.3 | 76.1
CAMK2D (calcium/calmodulin dependent protein kinase II delta) | 3 | -0.0733 | 107 | 102
OR6B2 (olfactory receptor family 6 subfamily B member 2) | 1 | -0.595 | 44.3 | 29.3
OR6B2 (olfactory receptor family 6 subfamily B member 2) | 2 | -0.386 | 110 | 84.2
OR6B2 (olfactory receptor family 6 subfamily B member 2) | 3 | 0.283 | 44.5 | 54.2
OR6B2 (olfactory receptor family 6 subfamily B member 2) | 4 | -0.0249 | 16.6 | 16.3
FZD2 (frizzled class receptor 2) | 1 | 0.046 | 23.1 | 23.8
FZD2 (frizzled class receptor 2) | 2 | 0.596 | 39.4 | 59.6
FZD2 (frizzled class receptor 2) | 3 | -0.535 | 93.8 | 64.7
FZD2 (frizzled class receptor 2) | 4 | -0.085 | 42.1 | 39.7
WNT10B (Wnt family member 10B) | 1 | -0.0203 | 62.4 | 61.6
WNT10B (Wnt family member 10B) | 2 | -0.171 | 63.4 | 56.3
WNT10B (Wnt family member 10B) | 3 | -0.462 | 41 | 29.7
WNT10B (Wnt family member 10B) | 4 | 0.000901 | 35 | 35
SDC4 (syndecan 4) | 1 | -0.162 | 5.52 | 4.94
SDC4 (syndecan 4) | 2 | 0.114 | 80.2 | 86.7
SDC4 (syndecan 4) | 3 | 0.0605 | 92 | 96
SDC4 (syndecan 4) | 4 | -0.0561 | 81.2 | 78.1
KCNS1 | 1 | -0.199 | 117 | 102
KCNS1 | 2 | -0.406 | 54.4 | 41
KCNS1 | 3 | 0.0518 | 68.8 | 71.4
KCNS1 | 4 | -0.111 | 93.3 | 86.4
PTP4A2 (protein tyrosine phosphatase 4A2) | 1 | -0.0113 | 62.6 | 62.2
PTP4A2 (protein tyrosine phosphatase 4A2) | 2 | -0.185 | 62.4 | 54.9
PTP4A2 (protein tyrosine phosphatase 4A2) | 3 | -0.379 | 53.1 | 40.8
PTP4A2 (protein tyrosine phosphatase 4A2) | 4 | -0.401 | 57.3 | 43.4
CA11 (carbonic anhydrase 11 (inactive)) | 1 | -0.53 | 82.9 | 57.5
CA11 (carbonic anhydrase 11 (inactive)) | 2 | 0.0942 | 66.2 | 70.6
CA11 (carbonic anhydrase 11 (inactive)) | 3 | -0.381 | 40.2 | 30.9
P4HTM (prolyl 4-hydroxylase, transmembrane) | 1 | -0.00871 | 44 | 43.8
P4HTM (prolyl 4-hydroxylase, transmembrane) | 2 | -0.192 | 86.9 | 76
P4HTM (prolyl 4-hydroxylase, transmembrane) | 3 | -0.834 | 24.2 | 13.6
P4HTM (prolyl 4-hydroxylase, transmembrane) | 4 | -0.256 | 93.1 | 78
